Results are given in words; binding and its absence hold for the method and conditions named. In cells and extracts the contact can be indirect. Some entries that bind do so weakly or less than the wild type.
Assays:
[1] = biological target: USP11 (endogenous, HEK293T) (human (endogenous in HEK293T)) (UniProt P51784); experiment: co-IP; whole-cell lysates of HEK293T, IP with anti-USP11 or IgG, immunoblot for endogenous NuRD components; HEK293T also after IR (6 Gy, 8 h), MMS (0.001%, 4 h) or MMC (1 μg/ml, 4 h) (Figure 3B, C)
FLAG-USP11 = FLAG-USP11 (UniProt P51784); experiment: co-IP; whole-cell lysates of HEK293T transfected with FLAG-USP11, IP with anti-FLAG, immunoblot for NuRD components
[2] = biological target: USP11 (endogenous, U2OS) (human (endogenous in U2OS)) (UniProt P51784); experiment: co-IP; extracts of U2OS cells, untreated or exposed to IR (6 Gy, 8 h in Figure 3B), immunoprecipitated and immunoblotted with antibodies as indicated
GST-fused USP11 = GST-fused USP11 (UniProt P51784); experiment: pull-down; bacterially expressed GST or GST-fused USP11 with in vitro transcribed/translated individual NuRD components; only the target purified

Protein sequences, listed by entry. Tags and fused reporters are not part of them.
UniProt P51784: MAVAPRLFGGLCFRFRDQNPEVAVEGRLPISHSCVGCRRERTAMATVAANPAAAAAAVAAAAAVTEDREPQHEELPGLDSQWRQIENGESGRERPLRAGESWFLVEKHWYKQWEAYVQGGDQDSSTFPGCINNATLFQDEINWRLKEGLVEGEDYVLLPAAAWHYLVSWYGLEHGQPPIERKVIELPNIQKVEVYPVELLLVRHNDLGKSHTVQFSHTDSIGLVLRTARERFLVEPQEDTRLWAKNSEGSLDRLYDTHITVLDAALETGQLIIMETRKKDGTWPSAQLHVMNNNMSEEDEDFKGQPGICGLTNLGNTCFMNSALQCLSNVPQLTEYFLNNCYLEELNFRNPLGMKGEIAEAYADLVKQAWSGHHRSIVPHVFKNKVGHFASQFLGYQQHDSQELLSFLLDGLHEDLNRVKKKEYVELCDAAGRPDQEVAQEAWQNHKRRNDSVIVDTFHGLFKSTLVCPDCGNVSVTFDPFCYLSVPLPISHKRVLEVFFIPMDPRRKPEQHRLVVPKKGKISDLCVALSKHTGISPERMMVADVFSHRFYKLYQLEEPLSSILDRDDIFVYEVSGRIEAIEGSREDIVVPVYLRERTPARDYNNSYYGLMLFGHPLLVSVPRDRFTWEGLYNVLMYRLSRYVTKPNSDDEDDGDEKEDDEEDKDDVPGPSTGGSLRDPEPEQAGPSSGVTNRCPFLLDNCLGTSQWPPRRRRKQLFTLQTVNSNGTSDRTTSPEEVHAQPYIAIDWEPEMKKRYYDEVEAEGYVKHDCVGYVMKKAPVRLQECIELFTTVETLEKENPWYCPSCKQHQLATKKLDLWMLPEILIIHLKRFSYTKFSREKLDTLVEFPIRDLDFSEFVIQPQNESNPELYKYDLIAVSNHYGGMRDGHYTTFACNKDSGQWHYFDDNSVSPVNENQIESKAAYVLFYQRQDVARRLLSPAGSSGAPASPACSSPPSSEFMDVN
UniProt Q09028: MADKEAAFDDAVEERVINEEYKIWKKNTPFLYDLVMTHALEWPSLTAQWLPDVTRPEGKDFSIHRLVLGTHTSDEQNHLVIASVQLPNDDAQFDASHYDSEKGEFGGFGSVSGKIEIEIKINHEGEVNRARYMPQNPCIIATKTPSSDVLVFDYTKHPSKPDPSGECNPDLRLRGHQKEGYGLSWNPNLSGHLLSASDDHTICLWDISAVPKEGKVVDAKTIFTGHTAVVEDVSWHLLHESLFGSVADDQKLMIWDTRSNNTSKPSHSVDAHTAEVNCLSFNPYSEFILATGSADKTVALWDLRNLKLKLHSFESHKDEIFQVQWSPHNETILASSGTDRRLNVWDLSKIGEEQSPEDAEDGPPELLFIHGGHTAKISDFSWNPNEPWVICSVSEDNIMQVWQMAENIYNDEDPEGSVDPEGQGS
UniProt Q13547: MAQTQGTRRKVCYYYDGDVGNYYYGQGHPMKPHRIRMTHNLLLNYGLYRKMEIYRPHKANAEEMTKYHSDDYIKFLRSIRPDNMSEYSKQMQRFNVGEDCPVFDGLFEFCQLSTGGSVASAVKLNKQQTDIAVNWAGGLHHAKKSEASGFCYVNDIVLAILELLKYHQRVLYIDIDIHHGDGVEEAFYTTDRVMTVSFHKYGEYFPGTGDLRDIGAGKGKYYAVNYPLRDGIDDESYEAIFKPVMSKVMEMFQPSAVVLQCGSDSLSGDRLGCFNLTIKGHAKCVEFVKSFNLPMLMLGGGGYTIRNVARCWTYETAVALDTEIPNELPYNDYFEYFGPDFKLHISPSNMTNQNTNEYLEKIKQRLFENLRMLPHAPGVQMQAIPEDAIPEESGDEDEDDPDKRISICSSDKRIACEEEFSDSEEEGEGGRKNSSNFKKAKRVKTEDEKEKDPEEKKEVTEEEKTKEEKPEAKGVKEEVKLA
UniProt P09874: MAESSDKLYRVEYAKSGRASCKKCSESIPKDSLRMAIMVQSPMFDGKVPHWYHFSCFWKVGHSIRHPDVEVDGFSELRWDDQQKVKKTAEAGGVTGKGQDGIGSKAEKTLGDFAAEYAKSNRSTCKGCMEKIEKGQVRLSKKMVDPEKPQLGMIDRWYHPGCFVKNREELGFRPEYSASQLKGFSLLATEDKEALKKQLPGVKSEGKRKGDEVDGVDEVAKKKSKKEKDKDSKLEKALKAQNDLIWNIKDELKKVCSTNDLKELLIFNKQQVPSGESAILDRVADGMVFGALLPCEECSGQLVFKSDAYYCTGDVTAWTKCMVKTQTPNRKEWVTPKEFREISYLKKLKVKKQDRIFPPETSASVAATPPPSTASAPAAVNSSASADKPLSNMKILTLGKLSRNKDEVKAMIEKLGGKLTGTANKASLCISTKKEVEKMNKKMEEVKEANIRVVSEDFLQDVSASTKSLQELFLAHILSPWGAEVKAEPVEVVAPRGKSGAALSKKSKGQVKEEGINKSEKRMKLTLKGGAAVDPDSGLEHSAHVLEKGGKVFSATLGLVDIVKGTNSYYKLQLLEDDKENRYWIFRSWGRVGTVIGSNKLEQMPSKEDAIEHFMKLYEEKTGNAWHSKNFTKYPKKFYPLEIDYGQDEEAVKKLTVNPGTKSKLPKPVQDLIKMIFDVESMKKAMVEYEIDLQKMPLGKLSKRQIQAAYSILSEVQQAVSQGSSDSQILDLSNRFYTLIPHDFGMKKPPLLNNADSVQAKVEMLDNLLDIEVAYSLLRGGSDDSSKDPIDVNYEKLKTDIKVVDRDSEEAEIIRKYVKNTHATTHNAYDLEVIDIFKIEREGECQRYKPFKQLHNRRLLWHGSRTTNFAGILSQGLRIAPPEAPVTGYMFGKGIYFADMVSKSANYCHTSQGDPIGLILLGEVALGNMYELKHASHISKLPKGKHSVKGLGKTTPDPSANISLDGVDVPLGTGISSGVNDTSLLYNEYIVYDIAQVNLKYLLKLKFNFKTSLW
UniProt Q92769: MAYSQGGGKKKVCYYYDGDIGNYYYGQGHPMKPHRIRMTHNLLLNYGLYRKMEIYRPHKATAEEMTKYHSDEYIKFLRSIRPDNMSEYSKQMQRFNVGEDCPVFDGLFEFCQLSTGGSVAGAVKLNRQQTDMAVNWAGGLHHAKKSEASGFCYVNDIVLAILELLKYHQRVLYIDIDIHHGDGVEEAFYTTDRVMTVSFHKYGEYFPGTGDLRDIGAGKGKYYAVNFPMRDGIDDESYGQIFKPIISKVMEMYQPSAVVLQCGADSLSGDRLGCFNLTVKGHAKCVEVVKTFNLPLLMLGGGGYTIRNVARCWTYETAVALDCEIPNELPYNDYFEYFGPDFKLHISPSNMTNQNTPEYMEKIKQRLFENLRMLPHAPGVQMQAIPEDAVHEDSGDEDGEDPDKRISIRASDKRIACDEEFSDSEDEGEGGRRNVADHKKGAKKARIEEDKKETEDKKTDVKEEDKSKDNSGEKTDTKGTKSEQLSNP
UniProt Q14839: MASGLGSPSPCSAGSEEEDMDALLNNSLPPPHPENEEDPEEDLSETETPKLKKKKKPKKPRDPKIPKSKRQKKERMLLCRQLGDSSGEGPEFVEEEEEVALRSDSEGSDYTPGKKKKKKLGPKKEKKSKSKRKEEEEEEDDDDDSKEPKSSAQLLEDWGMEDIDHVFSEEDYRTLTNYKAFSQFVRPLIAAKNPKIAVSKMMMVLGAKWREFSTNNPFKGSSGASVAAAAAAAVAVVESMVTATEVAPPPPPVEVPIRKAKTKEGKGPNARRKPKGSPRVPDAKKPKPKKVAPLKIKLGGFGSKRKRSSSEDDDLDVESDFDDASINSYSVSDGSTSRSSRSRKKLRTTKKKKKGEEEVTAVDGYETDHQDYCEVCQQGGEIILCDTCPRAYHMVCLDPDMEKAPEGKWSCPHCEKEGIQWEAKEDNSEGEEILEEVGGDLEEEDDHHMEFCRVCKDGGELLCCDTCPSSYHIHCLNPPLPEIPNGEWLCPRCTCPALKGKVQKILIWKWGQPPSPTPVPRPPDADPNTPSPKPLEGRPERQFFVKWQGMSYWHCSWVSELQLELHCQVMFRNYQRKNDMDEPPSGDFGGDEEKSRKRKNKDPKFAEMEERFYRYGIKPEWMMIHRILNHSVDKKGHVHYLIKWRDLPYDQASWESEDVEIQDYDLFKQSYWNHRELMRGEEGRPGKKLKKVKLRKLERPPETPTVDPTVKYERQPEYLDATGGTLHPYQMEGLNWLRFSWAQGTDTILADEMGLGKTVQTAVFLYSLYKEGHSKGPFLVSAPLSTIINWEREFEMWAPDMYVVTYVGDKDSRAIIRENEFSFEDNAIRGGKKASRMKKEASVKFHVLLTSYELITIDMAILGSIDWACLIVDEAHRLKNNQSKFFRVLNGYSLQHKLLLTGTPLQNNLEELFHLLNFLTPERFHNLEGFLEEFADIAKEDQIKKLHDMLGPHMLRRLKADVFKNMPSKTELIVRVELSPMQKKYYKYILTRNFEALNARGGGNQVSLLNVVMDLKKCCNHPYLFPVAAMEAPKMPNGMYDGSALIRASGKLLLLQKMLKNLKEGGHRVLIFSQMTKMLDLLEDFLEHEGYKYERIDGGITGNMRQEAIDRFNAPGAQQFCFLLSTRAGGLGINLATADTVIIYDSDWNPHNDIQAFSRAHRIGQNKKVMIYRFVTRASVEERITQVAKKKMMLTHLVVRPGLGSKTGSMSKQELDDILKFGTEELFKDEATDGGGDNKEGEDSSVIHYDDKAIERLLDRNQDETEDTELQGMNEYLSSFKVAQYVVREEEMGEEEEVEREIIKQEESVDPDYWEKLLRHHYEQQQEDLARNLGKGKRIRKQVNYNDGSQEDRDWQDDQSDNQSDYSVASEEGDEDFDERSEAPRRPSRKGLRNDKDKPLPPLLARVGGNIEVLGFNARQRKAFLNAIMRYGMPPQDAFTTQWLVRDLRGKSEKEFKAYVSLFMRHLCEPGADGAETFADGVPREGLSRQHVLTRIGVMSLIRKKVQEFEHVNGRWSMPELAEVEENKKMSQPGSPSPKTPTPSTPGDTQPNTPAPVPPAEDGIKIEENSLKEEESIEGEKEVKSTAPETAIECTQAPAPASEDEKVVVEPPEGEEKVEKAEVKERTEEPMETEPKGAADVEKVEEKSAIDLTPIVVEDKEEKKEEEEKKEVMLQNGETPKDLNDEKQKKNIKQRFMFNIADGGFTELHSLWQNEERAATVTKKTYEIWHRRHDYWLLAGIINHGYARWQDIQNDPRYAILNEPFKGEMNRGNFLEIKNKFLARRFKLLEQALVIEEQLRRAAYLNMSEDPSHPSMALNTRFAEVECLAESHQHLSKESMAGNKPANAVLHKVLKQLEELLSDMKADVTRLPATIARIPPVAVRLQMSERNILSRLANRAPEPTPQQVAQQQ

Substance	binding [1]	binding (FLAG-USP11)	binding [2]	binding (GST-fused USP11)
RbAp48 (endogenous, HEK293T) (from UniProt Q09028 1-425)	binds	binds		
HDAC1 (endogenous, HEK293T) (from UniProt Q13547 1-482) (enzyme)	binds	binds		
PARP1 (endogenous, U2OS) (from UniProt P09874 1-1014) (enzyme)			binds	
HDAC2 (in vitro transcribed/translated) (from UniProt Q92769 1-488) (enzyme)				binds
Mi-2β (endogenous, HEK293T) (from UniProt Q14839 1-1912)	binds	binds		
HDAC2 (endogenous, HEK293T) (from UniProt Q92769 1-488) (enzyme)	binds	binds		
